Laboratory results: the supplement of paper PMC3334620
Whole data set: some 33,000 sequences, median “E-score (-0.5 to 0.5)” near -0.0034, cut for the highest 2% near 0.25. The list shows a part of the results.

The sequences below were run against T1, Yap3 (UniProt P38749) (assay: PBM E-score (8-mer binding enrichment) (E-score (-0.5 to 0.5)); higher = stronger / more preferred TF binding). Details: protein concentration: 100 nM; construct: GST-full length.
T1 sequence: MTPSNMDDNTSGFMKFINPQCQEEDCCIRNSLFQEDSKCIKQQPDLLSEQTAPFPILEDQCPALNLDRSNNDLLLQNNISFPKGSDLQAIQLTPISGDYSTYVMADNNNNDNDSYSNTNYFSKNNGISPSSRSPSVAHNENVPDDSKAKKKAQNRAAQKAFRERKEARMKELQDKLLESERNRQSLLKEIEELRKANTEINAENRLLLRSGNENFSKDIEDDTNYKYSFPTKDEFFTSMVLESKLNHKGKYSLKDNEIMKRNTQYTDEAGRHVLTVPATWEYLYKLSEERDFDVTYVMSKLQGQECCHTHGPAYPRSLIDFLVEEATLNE
Description: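 Universal 'all 10-mer' protein binding microarrays (Agilent AMADID 015681) probed with GST-tagged S. cerevisiae TFs (full-length or DBD) made by in vitro transcription/translation (PURExpress), about 100-200 nM. Bound TF was detected with fluorescent anti-GST. Each ungapped 8-mer (which stands for itself and its reverse complement) is scored by the PBM enrichment score (E-score), a modified Wilcoxon-Mann-Whitney statistic from -0.5 to +0.5, computed with the Universal PBM Analysis Suite. Scale: above 0.35 generally sequence-specific binding.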

Sequence | PBM E-score
ATAAGGAC | 0.0651
CAACGGTA | -0.108
ACACGTGC | 0.0266
TATCTTAA | 0.134
ATTATCAC | 0.282
AATACGTA | 0.296
CCAGATGA | -0.0937
TAGGTCCA | -0.0617
CGAGTTAC | 0.11
GCGAAACA | 0.158
ACCATTGC | 0.00672
GGTGTTAA | 0.0307
GCCGGTCA | 0.0221
ATCATGCA | 0.123
CTCAATTC | 0.0176
CTCACGAG | -0.168
AGAGGTTC | 0.104
AGAACCAC | -0.0844
ACGATCGT | 0.00244
GTGTGTAA | 0.136
CTGCGCAC | -0.0182
AAGGCCAT | 0.0921
GTGGGGAA | 0.0765
CCTCTTGA | -0.0262

Sequence | PBM E-score
GGCCTGTA | -0.0898
ACTACATC | 0.145
CTCGTCAC | 0.0189
ATATACAA | 0.322
GATCACAA | 0.141
TATCAAAA | 0.23
CCAAGCAC | -0.0266
GCCCGAGA | -0.0118
CAACTTTA | 0.0997
GAAACGGC | 0.0838
GGACGAAC | -0.00251
CCGAATAC | 0.125
AAATAATG | 0.24
CGTTGTAA | 0.0119
ACCCTGGC | -0.13
GTAAGATA | 0.228
CACATTGA | 0.16
ATATGGTA | 0.234
AACGTAGT | -0.0878
GCTAAGCA | -0.143
ACCCCAAA | -0.0012
CCTAAATA | -0.122
AGCACCTC | -0.111
CATTCCGA | 0.24

Sequence | PBM E-score
CTGATAGC | -0.16
GGCTCATA | 0.082
TACGACGA | 0.141
CAAATCAG | 0.0568
GGGGCCCA | -0.339
CGCATCAA | 0.105
AAAATGGT | 0.214
CTCCCAAA | 0.0555
AAGATCTG | -0.0415
AAACAAAC | 0.181
AACAAGGG | -0.0929
ATATTTCA | 0.197
ATTGACCC | 0.0651
ATAGGTGG | -0.0769
ACTTAAGG | 0.0987
ACGGCGCT | -0.187
ACTCAACG | -0.0625
TATCCATA | 0.217
GCCGCATA | 0.115
CCTGCAGC | -0.12
CCGTTACA | 0.166
AAACCGTG | -0.0242
ACTTTTGG | 0.123
TATCGGGA | 0.0757

Sequence | PBM E-score
AGTTAGTG | 0.133
AAATAGAT | 0.193
TGCCAACA | -0.036
AAATACCG | 0.143
AAGAGCTG | -0.0831
CACGTCCC | -0.138
AGGTTGAA | 0.0605
TGTAGGAA | 0.0409
ACATCCCT | 0.00758
ATGTCCTA | -0.0602
AGCAGTCA | -0.107
CCGAAATA | 0.12
CCTGTTTC | -0.0337
ATTGAAAG | 0.143
CGCCACAG | -0.157
TTATAGAA | 0.00865
AGGCCCAA | -0.0375
CTCGTAGA | -0.244
AGCTTACA | 0.0995
CGATTCCG | -0.102
AAACCAGC | -0.0362
GAAGTGGA | -0.0711

Looked up one by one from the entries so far (four):
Sequence | PBM E-score
CGCCACAG | -0.157
ACATCCCT | 0.00758
CGATTCCG | -0.102
CCGAAATA | 0.12
